Test results reported in patent US20250212876A1, “METHOD FOR CONTROLLING PLANT DISEASES” (SUMITOMO CHEMICAL COMPANY, LIMITED, priority 2022, published 2025).
Some results were stated once for a whole list of compounds, not compound by compound. For at least one compound, name, drawing or mass did not settle the structure.

Tests used:
[1] = tested on: soybean rust fungus spores (Phakopsora pachyrhizi); test: Test Example 22: control test against soybean rust, spore germination in titer plate; format: cell-based; settings: 1 ppm treated concentration; 23° C., a few hours
[2] = tested on: Soybean rust (Phakopsora pachyrhizi); test: Test Example 11: control test against soybean rust, pot test, preventive; format: in vivo; settings: 200 ppm foliar spray, inoculation after 2 to 5 days
[3] = tested on: Septoria leaf blotch (Septoria tritici); test: Test Example 10: control test against Septoria leaf blotch, wheat pot test; format: in vivo; settings: 200 ppm foliar spray, inoculation after 4 days

Row | SMILES | number of germinated spores compared to the number of germinated spores in an untreated group [1] | lesion area in treated soybean compared to the lesion area in an untreated soybean [2] | lesion area in treated wheat compared to the lesion area in an untreated wheat [3]
1 | CCC(C)Sc1cccc(-c2cc(F)c(Cl)c(F)c2)c1 (centres unmarked) [compound 42] | ≤ 50% | – | –
2 | CCCSc1cccc(-c2ccc(C)c(F)c2)c1 [compound 14] | ≤ 50% | – | –
3 | CCCSc1cc(F)cc(-c2ccc(C)c(F)c2)c1 [compound 72] | – | ≤ 30% | –
4 | CCC[S+]([O-])c1cccc(-c2cc(C)cc(C)c2)c1 (centres unmarked) [compound 32] | ≤ 50% | – | –
5 | CCSc1cccc(-c2ccc(C)cc2)c1 [compound 7] | ≤ 50% | – | –
6 | CCS(=O)(=O)c1cccc(-c2ccc(C)cc2)c1 [compound 17] | ≤ 50% | – | –
7 | CC[S+]([O-])c1cccc(-c2ccc(C)cc2F)c1 (centres unmarked) [compound 16] | ≤ 50% | – | –
8 | CCCSc1cccc(-c2ccc3c(c2)CCC3)c1 [compound 35] | ≤ 50% | – | –
9 | CCCCSc1cccc(-c2cc(F)c(Cl)c(F)c2)c1 [compound 41] | ≤ 50% | – | –
10 | CCS(=O)(=O)c1cccc(-c2ccc(Cl)c(F)c2)c1 [compound 22] | – | ≤ 30% | ≤ 30%
11 | CCSc1cccc(-c2ccc(C)c(F)c2)c1 [compound 5] | ≤ 50% | – | –
12 | CCC(C)[S+]([O-])c1cccc(-c2cc(F)c(Cl)c(F)c2)c1 (centres unmarked) [compound 50] | ≤ 50% | – | –
13 | CCC(C)S(=O)(=O)c1cccc(-c2cc(F)c(Cl)c(F)c2)c1 (centres unmarked) [compound 49] | ≤ 50% | – | –
14 | O=S(=O)(c1cccc(-c2cc(F)c(Cl)c(F)c2)c1)c1ncccn1 [compound 75] | ≤ 50% | ≤ 30% | –
15 | CCC[S+]([O-])c1cccc(-c2cc(F)c(Cl)c(F)c2)c1 (centres unmarked) [compound 21] | – | ≤ 30% | –
16 | O=S(=O)(c1cccc(-c2cc(F)c(Cl)c(F)c2)c1)c1ccncn1 [compound 77] | ≤ 50% | ≤ 30% | –
17 | Fc1cc(-c2cccc(SCC3CC3)c2)cc(F)c1Cl [compound 62] | – | ≤ 30% | ≤ 30%
18 | O=S(=O)(c1cccnc1)c1cccc(-c2cc(F)c(Cl)c(F)c2)c1 [compound 79] | ≤ 50% | ≤ 30% | –
19 | CCCS(=O)(=O)c1cccc(-c2cc(F)c(Cl)c(F)c2)c1 [compound 20] | – | ≤ 30% | –
20 | CCS(=O)(=O)c1cccc(-c2ccc(C)cc2F)c1 [compound 15] | ≤ 50% | – | –

Row | SMILES | number of germinated spores compared to the number of germinated spores in an untreated group [1] | lesion area in treated soybean compared to the lesion area in an untreated soybean [2] | lesion area in treated wheat compared to the lesion area in an untreated wheat [3]
21 | CCCSc1cccc(-c2cc(F)c(Cl)c(F)c2)c1 [compound 13] | ≤ 50% | ≤ 30% | –
22 | O=S(=O)(Cc1ccccc1)c1cccc(-c2cc(F)c(Cl)c(F)c2)c1 [compound 51] | ≤ 50% | – | –
23 | Fc1cc(-c2cccc(SCCc3ccccc3)c2)cc(F)c1Cl [compound 61] | – | – | ≤ 30%
24 | Fc1cc(-c2cccc(SC3CC3)c2)cc(F)c1Cl [compound 44] | ≤ 50% | – | ≤ 30%
25 | CCS(=O)(=O)c1cccc(-c2ccc(C)c(F)c2)c1 [compound 11] | ≤ 50% | ≤ 30% | –
26 | CCCS(=O)(=O)c1cccc(-c2ccc(C)c(F)c2)c1 [compound 24] | ≤ 50% | ≤ 30% | –
27 | CCCS(=O)(=O)c1cccc(-c2ccc(C)c(C)c2)c1 [compound 38] | ≤ 50% | – | –
28 | CCC[S+]([O-])c1cccc(-c2cc(F)c(C)c(F)c2)c1 (centres unmarked) [compound 37] | ≤ 50% | – | –
29 | CCS(=O)(=O)c1cccc(-c2ccc(C(F)(F)F)cc2)c1 [compound 27] | ≤ 50% | – | –
30 | CCCSc1cccc(-c2cc(F)c(C)c(F)c2)c1 [compound 33] | ≤ 50% | – | –
31 | O=S(=O)(c1cccc(-c2cc(F)c(Cl)c(F)c2)c1)N1CCCC1 [compound 45] | ≤ 50% | ≤ 30% | –
32 | FC(F)(F)Sc1cccc(-c2ccc(Cl)cc2)c1 [compound 55] | – | – | ≤ 30%
33 | CCCCS(=O)(=O)c1cccc(-c2cc(F)c(Cl)c(F)c2)c1 [compound 47] | ≤ 50% | – | –
34 | CN(C)S(=O)(=O)c1cccc(-c2cc(F)c(Cl)c(F)c2)c1 [compound 46] | ≤ 50% | ≤ 30% | –
35 | CCCSc1cccc(-c2cc(F)cc(F)c2)c1 [compound 67] | ≤ 50% | ≤ 30% | –
36 | CCSc1cccc(-c2ccc3c(c2)OCO3)c1 [compound 9] | ≤ 50% | – | –
37 | O=S(=O)(c1cccc(-c2cc(F)c(Cl)c(F)c2)c1)c1cnccn1 [compound 76] | ≤ 50% | ≤ 30% | –
38 | CCC[S+]([O-])c1cccc(-c2ccc3c(c2)CCC3)c1 (centres unmarked) [compound 40] | ≤ 50% | – | –
39 | CCCS(=O)(=O)c1cccc(-c2ccc3c(c2)CCC3)c1 [compound 39] | ≤ 50% | – | –
40 | CCCS(=O)(=O)c1cccc(-c2cc(C)cc(C)c2)c1 [compound 31] | ≤ 50% | – | –

Row | SMILES | number of germinated spores compared to the number of germinated spores in an untreated group [1] | lesion area in treated soybean compared to the lesion area in an untreated soybean [2] | lesion area in treated wheat compared to the lesion area in an untreated wheat [3]
41 | CC[S+]([O-])c1cccc(-c2ccc(C)cc2)c1 (centres unmarked) [compound 18] | ≤ 50% | – | –
42 | CCCC[S+]([O-])c1cccc(-c2cc(F)c(Cl)c(F)c2)c1 (centres unmarked) [compound 48] | ≤ 50% | – | –
43 | CCCS(=O)(=O)c1cccc(-c2cc(F)c(C)c(F)c2)c1 [compound 36] | ≤ 50% | ≤ 30% | –
44 | CCC[S+]([O-])c1cccc(-c2ccc(C)c(F)c2)c1 (centres unmarked) [compound 25] | ≤ 50% | ≤ 30% | –
45 | CCCSc1cccc(-c2cc(C)cc(C)c2)c1 [compound 19] | ≤ 50% | – | –
46 | [O-][S+](Cc1ccccc1)c1cccc(-c2cc(F)c(Cl)c(F)c2)c1 (centres unmarked) [compound 52] | ≤ 50% | – | –
47 | Fc1cc(-c2cccc(SCc3ccccc3)c2)cc(F)c1Cl [compound 43] | ≤ 50% | – | ≤ 30%
48 | CCSc1cccc(-c2ccc(Cl)c(F)c2)c1 [compound 8] | ≤ 50% | – | –
49 | CCSc1cccc(-c2cc(F)c(Cl)c(F)c2)c1 [compound 2] | ≤ 50% | – | ≤ 30%
50 | O=S(=O)(c1cccc(-c2cc(F)c(Cl)c(F)c2)c1)c1ccccn1 [compound 78] | ≤ 50% | ≤ 30% | –
51 | CCSc1cccc(-c2ccc(Cl)cc2)c1 [compound 1] | ≤ 50% | – | ≤ 30%
52 | CCCSc1cccc(-c2cc(F)c(F)c(F)c2)c1 [compound 66] | ≤ 50% | ≤ 30% | –
53 | CCSc1cccc(-c2ccc(C(F)(F)F)cc2)c1 [compound 10] | ≤ 50% | – | –
54 | CC[S+]([O-])c1cccc(-c2ccc(C(F)(F)F)cc2)c1 (centres unmarked) [compound 28] | ≤ 50% | – | ≤ 30%
55 | CC[S+]([O-])c1cccc(-c2ccc(Cl)c(F)c2)c1 (centres unmarked) [compound 23] | – | ≤ 30% | ≤ 30%
56 | CCCSc1cccc(-c2ccc(C)c(C)c2)c1 [compound 34] | ≤ 50% | – | –
57 | CCSc1cccc(-c2ccc(C)cc2F)c1 [compound 6] | ≤ 50% | – | –
58 | CC[S+]([O-])c1cccc(-c2ccc3c(c2)OCO3)c1 (centres unmarked) [compound 30] | ≤ 50% | – | –
59 | O=S(=O)(c1ccncc1)c1cccc(-c2cc(F)c(Cl)c(F)c2)c1 [compound 80] | ≤ 50% | ≤ 30% | –
60 | CCS(=O)(=O)c1cccc(-c2ccc3c(c2)OCO3)c1 [compound 29] | ≤ 50% | – | –
